PubChem BioAssay AID602196 – INSERM – 2012
In all, the deposit lists about 23,000 reagents; below is a random part of them. 455 of them (2%) were called active. 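Active includes both protection and sensitisation; some change values fall well beyond the stated -50 to +50 range.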 Further read-outs or replicates are left out here. Not given: the amount of reagent.

- Purpose: 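Knock-downs that protect lung cancer cells from cisplatin or sensitise them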
- System: human A549 lung cancer cells
- Reagent: siRNA pair against human genes
- Timing: 48 h transfection before cisplatin; time from cisplatin to read-out not stated
- Conditions: cisplatin at a dose killing half of control-siRNA cells; exact dose and duration not given
- Detection: 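Shift in cisplatin death relative to control siRNA, from -50 (all cells die) to +50 (no cells die); siRNAs harmful on their own scored 0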
- Reading the numbers: two-siRNA summed score (-2 to +2): higher = both siRNAs protect from cisplatin killing; -2 means both sensitise; mean protection from cisplatin (shift in death): higher = protection from cisplatin killing
- Rule for the call: 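siRNAs harmful alone (LDH or WST-1) get 0; others get +1 for less and -1 for more cisplatin killing; genes are active when the two siRNAs give the same sign, summing to ±2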
- Calls: active = both siRNAs shift cisplatin killing the same way; inactive = no consistent shift, or siRNA harmful alone

After knock-down of ELFN2, the record shows two-siRNA summed score (-2 to +2) = 1; mean protection from cisplatin (shift in death) (%) = 9.6; inactive.
With knock-down of LOC440135, the screen gave two-siRNA summed score (-2 to +2) = 0; mean protection from cisplatin (shift in death) (%) = 9.8; inactive.
For LOC440483, the entry reads two-siRNA summed score (-2 to +2) = 0; mean protection from cisplatin (shift in death) (%) = 7.1; inactive.
With knock-down of PHYH, the screen gave two-siRNA summed score (-2 to +2) = 0; mean protection from cisplatin (shift in death) (%) = 34.4; inactive.
With knock-down of LOC389734, the record shows two-siRNA summed score (-2 to +2) = 0; mean protection from cisplatin (shift in death) (%) = 5.7; inactive.
After knock-down of LOC400953, the record shows two-siRNA summed score (-2 to +2) = 0; mean protection from cisplatin (shift in death) (%) = 7; inactive.
Knock-down of LOC153297 gave: two-siRNA summed score (-2 to +2) = 0; mean protection from cisplatin (shift in death) (%) = 5.6; inactive.
Depletion of CMC2 came out at: two-siRNA summed score (-2 to +2) = 0; mean protection from cisplatin (shift in death) (%) = -4.7; inactive.
OR51E2 gave two-siRNA summed score (-2 to +2) = 0; mean protection from cisplatin (shift in death) (%) = 5.2; inactive.
Against DDX51 the deposit lists two-siRNA summed score (-2 to +2) = 0; mean protection from cisplatin (shift in death) (%) = 4.1; inactive.
Depletion of RABGGTA came out at: two-siRNA summed score (-2 to +2) = 0; mean protection from cisplatin (shift in death) (%) = -0.4; inactive.
With knock-down of LOC124446, the record shows two-siRNA summed score (-2 to +2) = 0; mean protection from cisplatin (shift in death) (%) = 1.6; inactive.
SEC22A scored two-siRNA summed score (-2 to +2) = 0; mean protection from cisplatin (shift in death) (%) = -6.8; inactive.
With knock-down of PCDHGB7, the screen gave two-siRNA summed score (-2 to +2) = 0; mean protection from cisplatin (shift in death) (%) = 6.7; inactive.
After knock-down of GRAP2, the screen gave two-siRNA summed score (-2 to +2) = 0; mean protection from cisplatin (shift in death) (%) = -3.8; inactive.
ADAMTS10 scored two-siRNA summed score (-2 to +2) = 0; mean protection from cisplatin (shift in death) (%) = 0.4; inactive.
Depletion of AQP2 resulted in: two-siRNA summed score (-2 to +2) = 0; mean protection from cisplatin (shift in death) (%) = 12.5; inactive.
TMF1 gave two-siRNA summed score (-2 to +2) = -1; mean protection from cisplatin (shift in death) (%) = -4.4; inactive.
Against BPTF the deposit lists two-siRNA summed score (-2 to +2) = 0; mean protection from cisplatin (shift in death) (%) = -0.4; inactive.
Against IER5, the entry reads two-siRNA summed score (-2 to +2) = 0; mean protection from cisplatin (shift in death) (%) = 11.7; inactive.
With knock-down of CDH1, the record shows two-siRNA summed score (-2 to +2) = 0; mean protection from cisplatin (shift in death) (%) = 13.1; inactive.
